Laboratory results published in article doi:10.1101/2023.09.27.559872.
No constants are given. Whether binding was seen depends on the method and setting. In cells and extracts the contact can be indirect. Here binding means that the protein was enriched with, or labelled near, the bait; the list need not be complete. Where a sequence is shown, tags or fusion partners need not be part of it.

Amino acid sequences for entries named in this document (tags omitted).
UniProt P05198: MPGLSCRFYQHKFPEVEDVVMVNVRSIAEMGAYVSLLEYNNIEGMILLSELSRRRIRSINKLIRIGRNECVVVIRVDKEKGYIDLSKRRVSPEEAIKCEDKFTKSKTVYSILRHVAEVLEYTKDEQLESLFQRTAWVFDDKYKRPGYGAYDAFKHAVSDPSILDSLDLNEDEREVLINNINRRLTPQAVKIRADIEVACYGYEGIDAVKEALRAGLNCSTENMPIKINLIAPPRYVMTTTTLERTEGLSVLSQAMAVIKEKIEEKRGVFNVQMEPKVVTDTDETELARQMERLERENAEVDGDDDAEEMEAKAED
UniProt P60842: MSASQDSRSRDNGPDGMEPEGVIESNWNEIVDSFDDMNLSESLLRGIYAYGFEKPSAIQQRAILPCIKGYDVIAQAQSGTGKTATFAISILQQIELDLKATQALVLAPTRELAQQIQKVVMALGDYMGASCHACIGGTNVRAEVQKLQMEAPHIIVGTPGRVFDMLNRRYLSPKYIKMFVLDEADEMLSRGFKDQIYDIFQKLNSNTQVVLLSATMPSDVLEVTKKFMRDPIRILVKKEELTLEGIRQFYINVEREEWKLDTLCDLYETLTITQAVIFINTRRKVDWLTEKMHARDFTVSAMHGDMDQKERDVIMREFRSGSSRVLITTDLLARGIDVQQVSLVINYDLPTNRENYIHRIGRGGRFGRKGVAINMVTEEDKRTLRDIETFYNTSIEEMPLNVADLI

Target: T1, FLAG-BirA*-IBTK (UniProt Q9P2D0)
T1 sequence: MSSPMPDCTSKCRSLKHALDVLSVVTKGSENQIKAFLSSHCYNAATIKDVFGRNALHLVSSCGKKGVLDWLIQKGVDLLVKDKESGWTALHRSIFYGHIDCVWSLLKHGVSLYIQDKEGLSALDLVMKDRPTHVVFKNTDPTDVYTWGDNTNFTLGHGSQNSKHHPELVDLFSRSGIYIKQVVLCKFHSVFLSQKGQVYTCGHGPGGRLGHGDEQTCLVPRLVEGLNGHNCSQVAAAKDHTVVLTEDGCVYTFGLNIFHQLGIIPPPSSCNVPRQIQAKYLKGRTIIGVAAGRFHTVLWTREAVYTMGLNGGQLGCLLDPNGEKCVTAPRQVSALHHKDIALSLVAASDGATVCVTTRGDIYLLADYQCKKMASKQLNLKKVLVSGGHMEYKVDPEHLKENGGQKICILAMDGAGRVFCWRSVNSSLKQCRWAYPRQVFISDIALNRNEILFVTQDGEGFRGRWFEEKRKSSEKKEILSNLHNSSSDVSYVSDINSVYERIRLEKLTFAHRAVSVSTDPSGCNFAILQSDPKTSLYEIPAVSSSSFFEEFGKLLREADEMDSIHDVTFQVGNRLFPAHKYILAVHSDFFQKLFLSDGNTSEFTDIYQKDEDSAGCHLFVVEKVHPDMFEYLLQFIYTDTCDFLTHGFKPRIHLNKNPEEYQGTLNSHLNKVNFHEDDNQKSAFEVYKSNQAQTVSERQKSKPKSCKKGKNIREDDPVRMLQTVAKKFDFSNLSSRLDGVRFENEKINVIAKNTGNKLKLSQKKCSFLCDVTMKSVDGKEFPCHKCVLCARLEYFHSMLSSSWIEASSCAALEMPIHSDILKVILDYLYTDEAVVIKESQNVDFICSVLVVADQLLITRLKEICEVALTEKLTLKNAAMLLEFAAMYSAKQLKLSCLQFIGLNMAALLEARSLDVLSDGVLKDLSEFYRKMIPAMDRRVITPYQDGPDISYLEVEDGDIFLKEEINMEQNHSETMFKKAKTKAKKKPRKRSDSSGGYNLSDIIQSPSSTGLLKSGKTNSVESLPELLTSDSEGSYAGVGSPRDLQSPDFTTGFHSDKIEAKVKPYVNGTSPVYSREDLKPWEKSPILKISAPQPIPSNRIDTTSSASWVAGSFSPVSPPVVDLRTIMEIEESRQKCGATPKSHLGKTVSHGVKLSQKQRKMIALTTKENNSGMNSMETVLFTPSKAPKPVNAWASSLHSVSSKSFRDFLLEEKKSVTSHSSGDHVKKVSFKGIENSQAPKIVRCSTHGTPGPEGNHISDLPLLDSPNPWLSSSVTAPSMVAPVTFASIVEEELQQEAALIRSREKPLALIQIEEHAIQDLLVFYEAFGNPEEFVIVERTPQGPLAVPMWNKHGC
Test: affinity purification with mass spectrometry

With “eIF2α, endogenous (from UniProt P05198 1-315)” the binding was “binds”.

With “eIF4A1, endogenous (from UniProt P60842 1-406)” the binding was “binds”.
